PubChem BioAssay AID504774 | Drosophila RNAi Screening Center, 2011

Aim: 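Fly genes whose loss alters survival after alkylation damage to DNA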 (primary screen)
Cells: Drosophila Kc167 cells
Reagents: long dsRNA against Drosophila genes, about 0.25 µg dsRNA per well
Timing: about 6 days: 3 days knock-down, then 3 days with or without MMS
Challenge: methyl methanesulphonate 0.004% (w/v) for 3 days after knock-down
Read-out: 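Viability in wells given MMS, read as ATP luminescence, normalised by quantiles plate by plate and averaged across replicates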
Reading the numbers: mean viability with MMS and viability with MMS: higher = more surviving cells after MMS
The deposit covers about 23,000 reagents; this is an unselected part of those that have a named target and a result. 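Values are quantile-normalised luminescence on an arbitrary scale; higher means more cells surviving MMS.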 Not all columns of the deposit are shown.

With sha (shavenoid) [DRSC06331], what does the deposit list?
mean viability with MMS: 3.54e6; viability with MMS, replicate 1: 4.00e6

With Rlb1 [DRSC16826], what does the deposit list?
mean viability with MMS: 3.64e6; viability with MMS, replicate 1: 4.12e6

What is on record for HDAC4 (Histone deacetylase 4) [DRSC19780]?
mean viability with MMS: 3.68e6; viability with MMS, replicate 1: 4.19e6

How did the screen score dysc (dyschronic) [DRSC10273]?
mean viability with MMS: 3.40e6; viability with MMS, replicate 1: 4.01e6

Which result is listed for dysc (dyschronic) [DRSC11040]?
mean viability with MMS: 3.37e6; viability with MMS, replicate 1: 3.79e6

For dysc (dyschronic) [DRSC22334], what does the deposit list?
mean viability with MMS: 3.52e6; viability with MMS, replicate 1: 3.99e6

What is on record for dysc (dyschronic) [DRSC22824]?
mean viability with MMS: 3.38e6; viability with MMS, replicate 1: 3.88e6

What is on record for CG5727 [DRSC02882]?
mean viability with MMS: 3.86e6; viability with MMS, replicate 1: 4.53e6

Copied from above, 2 entries:
dysc (dyschronic) [DRSC22824]: mean viability with MMS = 3.38e6; viability with MMS, replicate 1 = 3.88e6
CG5727 [DRSC02882]: mean viability with MMS = 3.86e6; viability with MMS, replicate 1 = 4.53e6

Additional entries follow:
With Fnta (Farnesyl transferase alpha subunit) [DRSC00557], what does the deposit list?
mean viability with MMS: 3.52e6; viability with MMS, replicate 1: 3.95e6

For ccb (central complex broad) [DRSC20501], how do the results read?
mean viability with MMS: 3.48e6; viability with MMS, replicate 1: 3.90e6

Which result is listed for Eno (Enolase) [DRSC00750]?
mean viability with MMS: 3.22e6; viability with MMS, replicate 1: 3.60e6

What is on record for CG17778 [DRSC18504]?
mean viability with MMS: 3.78e6; viability with MMS, replicate 1: 4.23e6

What is on record for CG10353 [DRSC19354]?
mean viability with MMS: 3.57e6; viability with MMS, replicate 1: 4.07e6

For nyo (nyobe) [DRSC15029], how do the results read?
mean viability with MMS: 3.50e6; viability with MMS, replicate 1: 3.81e6

What did the screen give for nyo (nyobe) [DRSC15030]?
mean viability with MMS: 3.54e6; viability with MMS, replicate 1: 3.83e6
